We go through one substance from paper PMC6053364.

Amino acid sequences for entries named in this document (tags omitted).
UniProt Q09028: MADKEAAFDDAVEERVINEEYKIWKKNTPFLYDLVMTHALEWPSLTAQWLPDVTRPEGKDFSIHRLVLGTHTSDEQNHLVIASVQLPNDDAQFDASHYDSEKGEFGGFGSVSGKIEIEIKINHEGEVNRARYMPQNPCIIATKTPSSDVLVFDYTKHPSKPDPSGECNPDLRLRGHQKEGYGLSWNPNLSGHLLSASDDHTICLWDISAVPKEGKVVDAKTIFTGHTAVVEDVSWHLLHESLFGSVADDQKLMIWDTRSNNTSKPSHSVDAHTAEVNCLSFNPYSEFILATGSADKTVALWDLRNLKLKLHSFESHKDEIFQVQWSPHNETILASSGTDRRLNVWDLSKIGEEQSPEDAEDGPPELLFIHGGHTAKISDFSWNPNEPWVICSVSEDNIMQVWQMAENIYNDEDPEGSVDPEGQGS

The target of the test is T1, ARMC12, stably overexpressed in SH-SY5Y and SK-N-SH cells (human) (UniProt Q5T9G4).
T1 sequence: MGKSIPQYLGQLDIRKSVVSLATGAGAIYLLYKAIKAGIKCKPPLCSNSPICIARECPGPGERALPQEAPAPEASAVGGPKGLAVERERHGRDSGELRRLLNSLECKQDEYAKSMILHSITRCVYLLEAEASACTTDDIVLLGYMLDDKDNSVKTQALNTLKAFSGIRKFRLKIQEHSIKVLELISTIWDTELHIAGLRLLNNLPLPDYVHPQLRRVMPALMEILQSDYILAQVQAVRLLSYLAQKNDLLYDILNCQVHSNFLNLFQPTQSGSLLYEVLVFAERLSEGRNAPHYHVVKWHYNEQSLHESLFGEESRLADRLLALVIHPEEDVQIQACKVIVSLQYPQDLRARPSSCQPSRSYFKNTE
The test is described as follows: affinity purification with mass spectrometry; ARMC12 antibody immunoprecipitation from extracts of SH-SY5Y and SK-N-SH cells stably transfected with empty vector (mock) or ARMC12; Coomassie staining, trypsin digestion, LC-MS/MS.

These are yes or no findings as the source states them, for the method shown. Binding seen in cells or lysates may run through a third protein. A yes stands for co-enrichment or nearness to the bait. Other partners may have been found.

Turning to “retinoblastoma binding protein 4 (RBBP4), endogenous (from UniProt Q09028 1-425)”, the binding result is on record as “binds”.
